From article PMC6562482
Results are given in words; binding and its absence hold for the method and conditions named. In cells and extracts the contact can be indirect. Some results given as binding are weak or reduced against the parent protein; the word gives no strength. Tags and fused reporters may be left off the sequences shown.

Amino acid sequences for entries named in this document (tags omitted).
UniProt Q13619: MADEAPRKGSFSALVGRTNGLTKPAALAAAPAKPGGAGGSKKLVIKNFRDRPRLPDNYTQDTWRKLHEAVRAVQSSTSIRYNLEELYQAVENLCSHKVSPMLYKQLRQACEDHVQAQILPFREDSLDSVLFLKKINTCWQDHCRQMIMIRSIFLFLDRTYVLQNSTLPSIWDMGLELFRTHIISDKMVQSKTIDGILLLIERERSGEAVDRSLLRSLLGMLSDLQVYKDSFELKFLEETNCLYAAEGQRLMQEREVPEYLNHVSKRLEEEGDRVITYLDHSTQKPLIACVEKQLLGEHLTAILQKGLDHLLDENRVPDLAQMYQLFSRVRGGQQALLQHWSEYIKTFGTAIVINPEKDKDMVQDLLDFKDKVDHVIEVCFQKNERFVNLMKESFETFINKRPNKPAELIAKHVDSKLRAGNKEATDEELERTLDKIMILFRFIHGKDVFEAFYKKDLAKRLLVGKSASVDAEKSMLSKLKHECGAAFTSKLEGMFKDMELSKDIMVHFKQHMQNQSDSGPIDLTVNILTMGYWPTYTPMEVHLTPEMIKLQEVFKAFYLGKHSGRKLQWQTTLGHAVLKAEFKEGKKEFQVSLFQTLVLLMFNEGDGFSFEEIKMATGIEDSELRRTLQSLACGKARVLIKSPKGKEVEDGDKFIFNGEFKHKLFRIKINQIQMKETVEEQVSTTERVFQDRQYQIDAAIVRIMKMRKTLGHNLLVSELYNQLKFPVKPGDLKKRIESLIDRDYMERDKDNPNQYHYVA

Target: Cullin 4A (Cul4A), myc-his tagged (pBabe-Cul4A-myc-his) (UniProt Q13619)
Experiment: co-IP; reciprocal immunoprecipitation from 293T cells co-transfected with pBabe-Cul4A-myc-his and pCMV6-ANXA10-GFP; 10 ug/mL MG132 for 24 h before lysis; NP-40 lysis buffer (150 mM NaCl, 50 mM Tris pH 8.0, 1% NP40); Catch and Release v2.0 system; anti-GFP and anti-Cul4A (legend: anti-His tag) antibodies for the immunoprecipitation

B1: Annexin A10 (ANXA10), GFP tagged (pCMV6-ANXA10-GFP, OriGene) (protein, UniProt Q9UJ72 1-324)
chain: MFCGDYVQGTIFPAPNFNPIMDAQMLGGALQGFDCDKDMLINILTQRCNAQRMMIAEAYQSMYGRDLIGDMREQLSDHFKDVMAGLMYPPPLYDAHELWHAMKGVGTDENCLIEILASRTNGEIFQMREAYCLQYSNNLQEDIYSETSGHFRDTLMNLVQGTREEGYTDPAMAAQDAMVLWEACQQKTGEHKTMLQMILCNKSYQQLRLVFQEFQNISGQDMVDAINECYDGYFQELLVAIVLCVRDKPAYFAYRLYSAIHDFGFHNKTVIRILIARSEIDLLTIRKRYKERYGKSLFHDIRNFASGHYKKALLAICAGDAEDY
binding: binds
